Results from one PubChem assay

From PubChem BioAssay record AID912 (NCATS, 2007).

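Uptake of anthrax lethal toxin into cultured cells, read by FRET (460/530 nm ratio) and reported from the 460 nm channel; the cell line is not named here.
Each compound was tested as a concentration series from about 0.0005 to 40 µM.
The number is the fitted AC50 of the 460 nm signal alone; lower values mean a more potent effect. A falling signal goes with compounds filed as inhibitors or cytotoxic, a rising one with activators or fluorescent compounds (inferred from the filed classes).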

Values are in nM.
Common to all entries: measured here: 460 nm channel.
Part of the compounds only, not a random draw; the main read-out is not listed here.
Potencies fitted to partial, single-point or poorly fitting curves are rough.
The first word of each remark tells which way the curve ran; it can be opposite to the aim of the assay.

N=c1ccn(Cc2ccc(Cl)c(Cl)c2)cc1 gave AC50 2512 nM (falling, partial curve). Result for CN(C)S(=O)(=O)c1ccc(Nc2ccc(O)c3c2C(=O)c2c([N+](=O)[O-])ccc(O)c2C3=O)cc1 was AC50 1995 nM (falling, partial curve). With Cc1ccc(-n2c(Cc3cccn3C)nnc2SCC(=O)NC2CCCCC2)cc1 the assay gave AC50 5012 nM (rising, single point). With CCc1nc(N[C@@H](Cc2c[nH]c3ccccc23)C(=O)O)c2oc3ccccc3c2n1 the assay gave AC50 5012 nM (rising, single point). With Cc1ccc(OCC(=O)Nc2ccc3c(c2)nc2n3CCOC2)cc1 the assay gave AC50 31.62 nM (rising, full curve, poor fit). COc1cc2c(cc1OC)-c1cc(N3CCCc4ccccc43)nc(=O)n1CC2 read AC50 1259 nM (rising, partial curve).

Result for O=Cc1ccc(B(O)O)cc1 was AC50 31622 nM (falling, single point). COc1ccc(C2C(C(=O)N3CCN(c4ccc(OC)cc4)CC3)c3ccccc3C(=O)N2C)cc1 (configuration not stated) read AC50 19952 nM (rising, single point). With ClC(Cl)(Cl)C(N1CCN(c2ccccc2)CC1)N1CCN(c2ccccc2)CC1 the assay gave AC50 3162 nM (falling, partial curve). With COc1ccc(CNC(=O)c2csnn2)cc1 the assay gave AC50 5012 nM (rising, single point). With CN1CCc2c(sc3c2c(=O)n(-c2ccccc2)c2nnc(SCc4ccc(F)cc4)n32)C1 the assay gave AC50 2512 nM (rising, full curve). For COc1ccc2nc(NC(=O)CSc3nc4cccnc4n3C)sc2c1 the result was AC50 31622 nM (falling, single point).

NCCC1([N+](=O)[O-])CCNCC1 read AC50 3162 nM (falling, single point). For Cc1cccc(-n2ncc3c(Nc4ccc(F)cc4)ncnc32)c1 the result was AC50 5012 nM (falling, single point). With CC(C)(C)c1csc(NC(=O)c2cccs2)n1 the assay gave AC50 19952 nM (falling, partial curve). Result for O=C(Nc1nncs1)c1c(F)c(F)c(F)c(F)c1F was AC50 10000 nM (rising, partial curve). With O=C(Nc1ccc([N+](=O)[O-])cc1Cl)c1cc(Cl)ccc1O the assay gave AC50 10 nM (falling, full curve). CCOC(=O)c1sc(=NC(=O)c2cccc(OC)c2)n(C)c1C gave AC50 79.43 nM (falling, full curve, poor fit).

Cn1c(N)c(C(=O)NCc2ccccc2Cl)sc1=S gave AC50 5012 nM (falling, partial curve, poor fit). CSc1ccc(-c2c(C#N)c(N)nc3c2CCCC3)cc1 gave AC50 3.162 nM (falling, full curve, poor fit). For Cn1c(SCC(=O)Nc2cccc3ccccc23)nc(O)cc1=O the result was AC50 501.2 nM (rising, partial curve). For O=c1c(-c2cc(F)cc(F)c2)nc2cnc(Nc3ccccc3)nc2n1C[C@H]1CCCO1 the result was AC50 2512 nM (rising, full curve). CCOC(=O)c1ccc(CC(=O)c2oc3cc(O)ccc3c2C)o1 gave AC50 12589 nM (rising, partial curve). Result for CN1CCN(c2ncc3nc(-c4cccc(C#N)c4)c(=O)n(C)c3n2)CC1 was AC50 10000 nM (rising, partial curve).

With Cc1ccccc1-c1nc(CN2CCCC(C(=O)NCCCN3CCOCC3)C2)c(C)o1 (configuration not stated) the assay gave AC50 19952 nM (falling, partial curve, poor fit). For Cc1ccc(N2C(=O)c3oc4ccccc4c(=O)c3C2c2cccc(O)c2)nc1 (configuration not stated) the result was AC50 3162 nM (falling, partial curve). Result for Clc1ccccc1Cn1nnc(-c2cccs2)n1 was AC50 3162 nM (falling, partial curve).

Some entries from above, unchanged:

Result for Cc1ccc(OCC(=O)Nc2ccc3c(c2)nc2n3CCOC2)cc1 was AC50 31.62 nM (rising, full curve, poor fit).
Result for CN1CCc2c(sc3c2c(=O)n(-c2ccccc2)c2nnc(SCc4ccc(F)cc4)n32)C1 was AC50 2512 nM (rising, full curve).
Result for CN(C)S(=O)(=O)c1ccc(Nc2ccc(O)c3c2C(=O)c2c([N+](=O)[O-])ccc(O)c2C3=O)cc1 was AC50 1995 nM (falling, partial curve).